Biological target: Voltage-gated inwardly rectifying potassium channel KCNH2 (Homo sapiens, UniProt Q12809)

Chains of the proteins cited; added tags and fusions are not shown. Lines headed by an entry give the natural chain unless they say otherwise; changes in a name come on top.
UniProt Q12809: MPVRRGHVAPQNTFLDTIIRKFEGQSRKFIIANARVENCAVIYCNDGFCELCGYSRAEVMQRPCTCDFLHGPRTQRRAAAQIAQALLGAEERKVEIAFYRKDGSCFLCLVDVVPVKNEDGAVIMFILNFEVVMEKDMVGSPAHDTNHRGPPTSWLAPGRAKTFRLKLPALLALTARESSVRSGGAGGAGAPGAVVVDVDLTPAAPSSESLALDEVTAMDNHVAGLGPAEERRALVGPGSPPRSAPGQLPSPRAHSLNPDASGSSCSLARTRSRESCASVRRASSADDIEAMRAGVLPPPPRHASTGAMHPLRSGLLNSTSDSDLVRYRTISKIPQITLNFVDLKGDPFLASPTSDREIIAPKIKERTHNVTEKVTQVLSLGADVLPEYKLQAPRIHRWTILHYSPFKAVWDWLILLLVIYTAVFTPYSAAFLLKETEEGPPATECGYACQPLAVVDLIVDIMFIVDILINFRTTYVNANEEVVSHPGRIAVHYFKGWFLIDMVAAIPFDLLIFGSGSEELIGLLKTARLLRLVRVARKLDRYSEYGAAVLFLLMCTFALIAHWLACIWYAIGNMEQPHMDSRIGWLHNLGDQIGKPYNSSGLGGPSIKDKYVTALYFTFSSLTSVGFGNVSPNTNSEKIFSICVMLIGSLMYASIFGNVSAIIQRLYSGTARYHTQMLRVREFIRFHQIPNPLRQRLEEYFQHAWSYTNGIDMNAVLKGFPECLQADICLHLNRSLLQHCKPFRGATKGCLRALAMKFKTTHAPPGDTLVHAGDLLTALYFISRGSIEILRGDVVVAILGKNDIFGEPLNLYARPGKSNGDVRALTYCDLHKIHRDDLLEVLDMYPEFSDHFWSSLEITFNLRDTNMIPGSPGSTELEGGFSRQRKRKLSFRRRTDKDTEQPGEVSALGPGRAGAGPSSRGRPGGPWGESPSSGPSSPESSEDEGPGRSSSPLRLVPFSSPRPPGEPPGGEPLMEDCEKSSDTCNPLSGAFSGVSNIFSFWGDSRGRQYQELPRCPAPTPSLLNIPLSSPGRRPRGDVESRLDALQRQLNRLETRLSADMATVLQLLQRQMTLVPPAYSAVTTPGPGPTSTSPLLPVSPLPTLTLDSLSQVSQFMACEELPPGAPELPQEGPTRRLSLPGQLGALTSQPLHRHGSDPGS

COCc1ccc2c3nc(N4CCC[C@@H](N)C4)n(Cc4ccccc4Cl)c3c(=O)n(C)c2c1
IC50: 1.81 µM
